Measurements reported in the supplement of paper PMC11348887.
Where a name gives a salt, the structure may show the parent alone. The list shows a part of the results. Most entries show no effect beyond the scatter of the controls. *1 amine or outer side, *2 acyl side, *3 side chain or, on linkers, in order; H or OH if unused. Where a SMILES comes first, the peptide text is derived from it. Bridges are numbered along the chain shown (N, C = ends). [ ]: non-standard residue; d: D form. The star is where a group is joined. hTyr(3S-OH,4S-OH,3'-OSO3H) = N[C@H](C(=O)O)[C@H](O)[C@@H](O)c1ccc(O)c(OS(=O)(=O)O)c1; Orn(4R-OH,5R-OH) = O=C([C@H](C[C@@H](O)[C@@H](O)N[*:3])N[*:1])[*:2]; Pro(3S-OH,4S-Me) = C[C@H]1CN[C@H](C(=O)O)[C@H]1O; X3 = CCCCCOc1ccc(-c2cc(-c3ccc(C(=O)*)cc3)no2)cc1; Gln(3R-OH) = NC(=O)C[C@@H](O)[C@H](N)C(=O)O; Hyp = O=C(O)[C@@H]1C[C@@H](O)CN1

What was measured:
Settings in all cases: 5 µM; treatment: days 7-14 after plating, readout day 21
[1] = system: hPSC-derived cortical neurons (WA09); assay: nucleus area z-score vs screen plate; higher = larger nuclei (more mature)
[2] = system: hPSC-derived cortical neurons (WA09); assay: total neurite length per nucleus (MAP2) z-score; higher = more neurite growth
[3] = system: hPSC-derived cortical neurons (WA09); assay: nucleus roundness z-score vs screen plate; higher = rounder nuclei (more mature)
[4] = system: hPSC-derived cortical neurons (WA09); assay: KCl-induced FOS+/EGR-1+ double-positive nuclei fraction z-score (KCl minus unstimulated); higher = stronger activity-induced IEG response

Structure (SMILES) | nucleus area z-score [1] | total neurite length per nucleus (z-score) [2] | nucleus roundness z-score [3] | KCl-induced FOS+/EGR-1+ double-positive nuclei fraction z-score [4]
CCCCCOc1ccc(-c2cc(-c3ccc(C(=O)N[C@H]4C[C@@H](O)[C@@H](O)NC(=O)[C@@H]5[C@@H](O)[C@@H](C)CN5C(=O)[C@H]([C@H](O)CC(N)=O)NC(=O)[C@H]([C@H](O)[C@@H](O)c5ccc(O)c(OS(=O)(=O)O)c5)NC(=O)[C@@H]5C[C@@H](O)CN5C(=O)[C@H]([C@@H](C)O)NC4=O)cc3)no2)cc1 [Micafungin Sodium] (X3-[Orn(4R-OH,5R-OH)]T[Hyp][hTyr(3S-OH,4S-OH,3'-OSO3H)][Gln(3R-OH)][Pro(3S-OH,4S-Me)]; lactam 1-C) | -0.315 | 0.0286 | -0.482 | 1.57
CC(C)NCC(O)COc1ccc(COCCOC(C)C)cc1 (centres undefined) [Bisoprolol fumarate] | 3.2 | -1.01 | -1.46 | 2.21
CCN(CC)C(=O)N1CCN(C)CC1 [Diethylcarbamazine citrate] | -0.146 | 0.139 | -0.216 | 1.83
CN(CCOc1ccc(NS(C)(=O)=O)cc1)CCc1ccc(NS(C)(=O)=O)cc1 [Dofetilide] | 1.13 | -0.239 | 0.152 | 0.232
CC(C)Oc1ccc2c(=O)c(-c3ccccc3)coc2c1 [Ipriflavone (Osteofix)] | 1.25 | -0.296 | 0.413 | 0.498
CCCCNc1ccc(C(=O)OCCN(C)C)cc1 [Tetracaine HCl] | -0.635 | 0.072 | -1.13 | -0.401
NCc1c[nH]c(=S)n1[C@H]1CCc2c(F)cc(F)cc2C1 [Nepicastat (SYN-117) HCl] | -0.289 | -1.4 | -0.97 | -0.0378
CCCC(CCC)C(=O)O[C@H]1C[C@H]2CC[C@@H](C1)[N+]2(C)C [Anisotropine Methylbromide] | -0.405 | 0.328 | -0.193 | -0.846
COCCOC(=O)C1=C(C)NC(C)=C(C(=O)OC/C=C/c2ccccc2)C1c1cccc([N+](=O)[O-])c1 (centres undefined) [Cilnidipine] | -0.973 | -0.091 | 0.252 | -0.923
NS(=O)(=O)c1cc2c(cc1Cl)NC(C(Cl)Cl)NS2(=O)=O (centres undefined) [Trichlormethiazide] | -0.42 | -0.213 | -0.272 | -1.38
CC1=NN(c2ccc(C)c(C)c2)C(=O)/C1=N\Nc1cccc(-c2cccc(C(=O)O)c2)c1O [Eltrombopag] | 0.911 | -0.506 | 0.309 | -0.00451
CCCc1ncc(C[n+]2ccccc2C)c(N)n1 [Amprolium HCl] | -0.314 | 0.536 | 0.5 | -1.07
CCn1cc(C(=O)O)c(=O)c2ccc(C)nc21 [Nalidixic acid] | -0.521 | 1.08 | 0.78 | 0.584
CS(=O)(=O)Nc1ccc([N+](=O)[O-])cc1Oc1ccccc1 [Nimesulide] | 0.257 | 0.0292 | 0.336 | 0.226
CCOc1cc([C@@H](CS(C)(=O)=O)N2C(=O)c3cccc(NC(C)=O)c3C2=O)ccc1OC | 1.23 | 1.48 | 0.618 | 0.0388
CN1CCN(C(=O)c2cc3cc(Cl)ccc3[nH]2)CC1 | 0.0492 | 0.768 | 0.979 | 2.02
CCS(=O)(=O)CCn1c([N+](=O)[O-])cnc1C [Tinidazole] | 0.485 | 0.795 | 0.322 | 0.457
CCCc1cc2c(N3CCN(C4=NCC(C)(C)S4)CC3)ncnc2s1 [MI-2 (Menin-MLL Inhibitor)] | -4.08 | -3.46 | -4.33 | -2.07
Cc1c[nH]c(/C=C2\C(=O)Nc3ccccc32)c1CCC(=O)O | 1.57 | 0.205 | -0.907 | 0.865
CS(=O)(=O)c1cccc(CNc2nc(Nc3ccc4c(c3)CCC(=O)N4)ncc2C(F)(F)F)c1 | -0.803 | -0.794 | 0.451 | 0.0273
O=C(O)c1cc(-c2ccc(F)cc2F)ccc1O [Diflunisal] | -0.962 | -0.247 | 0.142 | -0.538
CCN(CC)CC(=O)Nc1c(C)cccc1C [Lidocaine hydrochloride] | 0.543 | 0.553 | 0.324 | 1.61
O=C1c2c(O)ccc(O)c2C(=O)c2c(NCCNCCO)ccc(NCCNCCO)c21 [Mitoxantrone HCl] | -5.46 | -5.36 | 1.26 | -0.903
COc1ccc2[nH]c([S@@+]([O-])Cc3ncc(C)c(OC)c3C)nc2c1 [Esomeprazole Magnesium] | -0.676 | 1.37 | 1.02 | 0.982
c1ccc(CN(CC2=NCCN2)c2ccccc2)cc1 [Antazoline HCl] | -0.24 | 0.215 | 0.555 | -0.0213
O=C(Nc1cc(C(F)(F)F)cc(C(F)(F)F)c1)c1cc(Cl)ccc1O | 0.59 | -0.369 | -0.878 | 0.471

Already shown: entries from further up.
Structure (SMILES) | nucleus area z-score [1] | total neurite length per nucleus (z-score) [2] | nucleus roundness z-score [3] | KCl-induced FOS+/EGR-1+ double-positive nuclei fraction z-score [4]
COc1ccc2[nH]c([S@@+]([O-])Cc3ncc(C)c(OC)c3C)nc2c1 [Esomeprazole Magnesium] | -0.676 | 1.37 | 1.02 | 0.982
c1ccc(CN(CC2=NCCN2)c2ccccc2)cc1 [Antazoline HCl] | -0.24 | 0.215 | 0.555 | -0.0213
